Results as given in PubChem BioAssay AID2551 (National Center for Advancing Translational Sciences (NCATS), 2010).
In all, about 310,000 compounds went through this assay and about 17,000 (5.5%) were called active. The shares of active, inactive and inconclusive entries below differ from those in the screen. Calls follow the shape of the dose curve; as a rule, active = well fitted inhibition curve with a large enough effect; inconclusive = small, poorly fitted or top-dose-only effect, or effect the other way; inactive = no such curve, though single readings can be large or run the other way. Potencies of inconclusive entries are doubtful fits and often do not repeat.

Sequences of proteins named here, by UniProt entry; tags and fusion partners are left off. A change or cut given only in a name is not applied to a line headed by its entry.
UniProt P51450: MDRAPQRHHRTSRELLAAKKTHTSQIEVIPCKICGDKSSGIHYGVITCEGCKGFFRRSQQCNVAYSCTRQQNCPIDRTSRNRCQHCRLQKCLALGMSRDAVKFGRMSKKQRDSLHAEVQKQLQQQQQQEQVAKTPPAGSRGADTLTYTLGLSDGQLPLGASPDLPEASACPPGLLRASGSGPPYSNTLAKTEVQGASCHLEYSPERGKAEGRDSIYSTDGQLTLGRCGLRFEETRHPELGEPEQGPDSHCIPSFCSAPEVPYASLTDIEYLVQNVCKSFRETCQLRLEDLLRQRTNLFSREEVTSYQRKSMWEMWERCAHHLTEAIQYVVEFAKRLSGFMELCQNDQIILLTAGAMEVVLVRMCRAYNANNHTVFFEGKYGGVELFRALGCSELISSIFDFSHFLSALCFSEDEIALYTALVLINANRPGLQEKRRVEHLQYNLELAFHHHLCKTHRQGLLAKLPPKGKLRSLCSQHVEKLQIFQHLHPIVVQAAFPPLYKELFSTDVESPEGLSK

biological target: Nuclear receptor ROR-gamma (Mus musculus) (UniProt P51450); experiment: qHTS for inhibitors of ROR gamma transcriptional activity; conditions: Drosophila S2 Gal4-RORgamma UAS-luciferase reporter, 20 h; series mostly up to 53.6 µM; also: nearly all actives have a fitted effect of over 60% in size
Summary of the method: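 A Gal4/UAS one-hybrid system in insect cells: metallothionein-promoter Gal4–ROR gamma fusion plus Photinus luciferase reporter. Copper sulfate 700 uM final, 20 hr ambient incubation, luminescent detection after 10 min with reagent.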
Potency is read from the fitted curve at half-maximal effect.

Structure (SMILES) | Potency
Cc1ccc(C)n1-c1c(C(=O)NN)cnn1-c1ccccc1 | inconclusive: 12.6 µM [inhibitor, single point]
CCOC(=O)N1CCN(c2c(F)cc3[nH]c(=S)[nH]c3c2Br)CC1 | inconclusive: 3.16 µM [inhibitor, partial curve]
CNC(=S)N(Cc1ccc(OC)cc1)C1CC(=O)N(c2ccc(C(=O)OC)cc2)C1=O (configuration not stated) | inconclusive: 8.91 µM [activator, partial curve]
CCOc1ccc(/C=N/Nc2nc(=O)[nH]nc2C)cc1OC | active: 12.6 µM
CCOCCCNC(=O)C(NC(=O)Cc1cccs1)c1ccc(Cl)cc1 (configuration not stated) | inconclusive: 5.62 µM [inhibitor, single point]
O=C(Nc1ccc2oc(-c3ccccc3F)nc2c1)c1ncn[nH]1 | inconclusive: 0.0794 µM [activator, partial curve, poor fit]
Cc1ccc(NC(=O)CSc2nnc(-c3ccco3)c(-c3ccco3)n2)cc1 | inactive
COc1nc(N(c2ccccc2)c2ccccc2)nc(-n2ccnc2)n1 | inconclusive: 3.98 µM [inhibitor, single point]
COc1ccc(C(=O)N2CCC(O)(c3ccc(Cl)cc3)CC2)cc1OC | inconclusive: 12.6 µM [activator, partial curve]
Cc1ccc(C(=O)NC(=S)N2CCCC2)cc1 | active: 0.891 µM
COc1ccc(N2CC(O)=C(c3nc(-c4ccc(F)cc4)cs3)C2=N)cc1OC | inconclusive: 14.1 µM [activator, partial curve]
O=[N+]([O-])c1ccc(Cl)c(C[n+]2cccc3ccccc32)c1 | inactive
O=C(COC(=O)C1CCC1)Nc1ccc(Oc2ccccc2)cc1 | inconclusive: 17.8 µM [activator, single point]
Cc1cc(C(=O)COC(=O)CC2Sc3ccccc3NC2=O)c(C)n1-c1ccc2c(c1)OCO2 (configuration not stated) | inactive
N#Cc1ccc(CN2C=NS(=O)(=O)c3ccccc32)cc1 | inactive
CCSc1ccc2nnc(-c3cccc(F)c3)n2n1 | inconclusive: 10 µM [inhibitor, partial curve]
Cc1cccc(C)c1NC(=O)c1sccc1SCc1cccc(C(F)(F)F)c1 | inconclusive: 1.78 µM [inhibitor, full curve, poor fit]
Cc1oc2c(C)c3oc(=O)c(CCC(=O)N[C@@H](CC(C)C)C(=O)O)c(C)c3cc2c1C | inactive
O=C(O)c1ccc(C[n+]2c(-c3ccccc3)csc2Nc2ccccc2)cc1 | active: 5.62 µM
COc1cccc(/C=N\NC(=O)c2ccc(C)nc2)c1 | inconclusive: 35.5 µM [activator, single point]
C=CCn1c(SCCNC(C)=O)nc2cc(-c3ccccc3)sc2c1=O | inconclusive: 11.2 µM [inhibitor, partial curve]
CCCCNC(=S)NNC(=O)c1ccco1 | active: 12.6 µM
Cc1c(-c2ccc(O)cc2)nn(-c2ccc(O)cc2)c1-c1ccc(OCCN2CCCCC2)cc1 | inconclusive: 35.5 µM [inhibitor, single point]
CCOC(=O)C(NC(C)=O)(Nc1ccc(S(=O)(=O)Nc2ccncn2)cc1)C(F)(F)F (configuration not stated) | inconclusive: 6.31 µM [activator, single point]

Rewritten as tab-separated lines: entries from further up.
Structure (SMILES)	Potency
O=[N+]([O-])c1ccc(Cl)c(C[n+]2cccc3ccccc32)c1	inactive
O=C(COC(=O)C1CCC1)Nc1ccc(Oc2ccccc2)cc1	inconclusive: 17.8 µM [activator, single point]

Next compounds follow.

Structure (SMILES) | Potency
Oc1ccc(N=Nc2ccc3c(c2)OCCO3)c(O)c1 | active: 8.91 µM
N#Cc1ccccc1Cn1cc(/C=C/[N+](=O)[O-])c2ccccc21 | inconclusive: 14.1 µM [inhibitor, single point]
COC(=O)c1ccc(C(NC(=O)OCc2ccccc2)/C(F)=C/[C@@H](C)C(=O)NCc2ccc(OC)c(OC)c2)cc1 (some centres not stated) | inactive
Cc1ccc(C(=O)N/C(=C/c2ccco2)C(=O)NCCc2c[nH]c3ccccc23)cc1C | inconclusive: 11.2 µM [activator, partial curve]
COc1ccc(Cl)cc1N=Nc1ncc[nH]1 | inconclusive: 7.94 µM [inhibitor, full curve]
CCCC[n+]1ccn(C2=C([O-])c3ccccc3C(=O)/C2=N\S(=O)(=O)c2ccc(Cl)cc2)c1 | active: 1.58 µM
Cc1nnc(SCc2nc(N)nc(Nc3ccccc3)n2)s1 | inconclusive: 31.6 µM [activator, partial curve, poor fit]
CC1=C(C(=O)Nc2ccccc2F)C(c2cccs2)NC(=S)N1 (configuration not stated) | inactive
O=S(Cc1ccc(Br)cc1)Cc1nnc(SCc2ccc(Br)cc2)n1-c1ccccc1 (configuration not stated) | inconclusive: 14.1 µM [activator, partial curve]
S=c1[nH]nc(C2CCCCC2)n1/N=C/c1c(Cl)cccc1Cl | inconclusive: 11.2 µM [inhibitor, partial curve, poor fit]
CC1=CC(=O)C=C(C)C1=NOC(=O)c1cccc([N+](=O)[O-])c1 | active: 11.2 µM
COC(=O)CCC(=O)NC1CC(C)(C)Cc2c1cnn2-c1ccc(F)cc1 (configuration not stated) | inconclusive: 5.62 µM [activator, single point]
O=C(Nc1ccc2nc(-c3ccccn3)c(-c3ccccn3)nc2c1)N1CCOCC1 | inactive
CN(CC(=O)O/N=C(\N)c1ccccn1)S(=O)(=O)c1ccc(Br)cc1 | inconclusive: 7.94 µM [activator, partial curve]
CC(C)n1c(-c2cccs2)nc2ccccc21 | inconclusive: 35.5 µM [inhibitor, single point]
CNS(=O)(=O)c1cccc(C(=O)OCC(=O)Nc2sc3c(c2C#N)CCCCC3)c1 | inconclusive: 7.94 µM [activator, partial curve]
Cc1cc(C)n(-c2nncc(-c3ccccc3)n2)n1 | inconclusive: 4.47 µM [inhibitor, full curve, poor fit]
COc1ccccc1NC(=S)NC(C)C(c1cccs1)N1CCOCC1 (configuration not stated) | active: 12.6 µM
COc1cccc(OC)c1C(=O)Nc1nc2cc3c(cc2s1)OCO3 | inactive
CCCCOc1ccc(C(=O)C(CN2CCOCC2)c2ccccc2)cc1 (configuration not stated) | inconclusive: 17.8 µM [inhibitor, single point]
CSc1ccccc1OCc1cc(C(=O)NCCN2CCCC(O)C2)no1 (configuration not stated) | inactive
COc1ccc(/C=N\Nc2ccccn2)c(OC)c1 | inconclusive: 20 µM [inhibitor, single point]
O=S(=O)(Nc1ccc(F)cc1)N1CCOCC1 | inconclusive: 3.16 µM [activator, single point]
CCC(=O)NC(c1ccco1)c1cc(Cl)c2cccnc2c1O (configuration not stated) | active: 1.41 µM

Structure (SMILES) | Potency
CC(=O)c1ccc(NC(=S)Nc2ccc3cn[nH]c3c2)cc1 | inconclusive: 0.708 µM [inhibitor, full curve]
O=C(CN1CCN(S(=O)(=O)c2ccc(Br)cc2)CC1)N/N=C/c1ccc(Cl)c([N+](=O)[O-])c1 | inconclusive: 20 µM [activator, single point]
CC(C)CCn1c(=O)[nH]c2ccccc21 | inconclusive: 35.5 µM [activator, single point]
CCCN(CC1CC1)C(=S)NC(=O)C1CC1 | active: 3.98 µM
COc1ccc(C(=O)C2CCCN(C(=O)c3ccc(F)cc3)C2)cc1OC (configuration not stated) | inconclusive: 11.2 µM [activator, partial curve]
CCOc1ccc(N2C(=O)C(Cl)=C(Nc3ccccc3O)C2=O)cc1 | inactive
O=C(CSc1nnnn1-c1cccc2c1CCCC2)NC1CCCC1 | inconclusive: 31.6 µM [activator, single point]
C[C@H](NCc1c[nH]c2ccccc12)c1ccccc1 | inconclusive: 22.4 µM [inhibitor, single point]
CC(C)CC(=O)/C(=C\c1ccc(Cl)cc1Cl)n1cncn1 | active: 4.47 µM
CC(C)c1ccc(S(=O)(=O)/N=C2/C=CC(=O)c3ccccc32)cc1 | inconclusive: 35.5 µM [inhibitor, single point]
CC1=C(C)CC(C(=O)NCc2cccc(Cl)c2)C(C(=O)O)C1 (configuration not stated) | inconclusive: 0.794 µM [activator, full curve]
COc1ccc(OC)c(S(=O)(=O)N2CCC(C(=O)NCCc3ccc(OC)c(OC)c3)CC2)c1 | inconclusive: 22.4 µM [activator, single point]
O=C(Nc1sc2c(c1C(=O)NCc1ccco1)CCCC2)c1ccc2c(c1)OCO2 | inconclusive: 7.08 µM [activator, partial curve]
Cc1ccc(N2C(=O)CC(Sc3cccs3)C2=O)cc1 (configuration not stated) | active: 11.2 µM
c1ccc2c(c1)CC(CN1CCNCC1)O2 (configuration not stated) | inconclusive: 14.1 µM [activator, partial curve, poor fit]
Cc1ccc(OCC(=O)Nc2ccc3c(c2)OCO3)c([N+](=O)[O-])n1 | inconclusive: 14.1 µM [activator, single point]
CCOC(=O)N1CCN(C(=O)c2ccc(NS(=O)(=O)c3ccc(C)cc3)cc2)CC1 | inconclusive: 0.316 µM [activator, partial curve, poor fit]
CCCCOC(=O)N/N=C/C=C/c1ccccc1 | inconclusive: 5.62 µM [activator, single point]
CC(OC(=O)C1COc2ccccc2O1)C(=O)N(C)c1ccccc1 (configuration not stated) | inactive
CC(=O)Nc1ccc(S(=O)(=O)NCCc2csc(-c3cccnc3)n2)cc1 | inactive
CC(NCc1ccc(OCC(N)=O)cc1)C12CC3CC(CC(C3)C1)C2 (configuration not stated) | inactive
S=C(NCCc1ccccc1)NC1CC1 | active: 4.47 µM
Cc1cccc2nc(CSc3ccc(Cl)cc3)cn12 | active: 7.94 µM
CN(C)c1ccc(/C=N/NC(=S)NCc2ccco2)cc1 | active: 1.78 µM

Arranged by molar mass (falling): some entries from above.
Structure (SMILES) | Potency
COc1ccc(C(=O)C2CCCN(C(=O)c3ccc(F)cc3)C2)cc1OC (configuration not stated) | inconclusive: 11.2 µM [activator, partial curve]
CN(C)c1ccc(/C=N/NC(=S)NCc2ccco2)cc1 | active: 1.78 µM
S=C(NCCc1ccccc1)NC1CC1 | active: 4.47 µM
CC(C)CCn1c(=O)[nH]c2ccccc21 | inconclusive: 35.5 µM [activator, single point]
